PubChem BioAssay AID1259260 | Sanger Institute – 2017

- Purpose: 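Kinome knock-down with three anchor drugs to find synergy partners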 (primary screen)
- Cell system: human NCI-H716 colorectal cancer cells
- Knock-down reagent: siRNA pool against human genes
- Challenge: anchor drugs BYL719 (alpelisib) 1 µM, cetuximab 5 µg/ml or trametinib 10 nM, each at a dose chosen to harm viability only mildly; DMSO vehicle for the knock-down-alone arm
- Measurement: 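Mean viability over replicates against non-targeting siRNA, robust z-score without drug, and per-drug synergy comparing combined with single treatments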
- Scale: viability robust z-score, siRNA alone: higher = more surviving cells; below -3 called essential; viability vs control, no drug: higher = more surviving cells; synergy score with BYL719 and synergy score with cetuximab and synergy score with trametinib: higher = stronger synergy (synthetic lethality) with drug
- Hit rule: 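a knock-down counts as essential if its no-drug robust z-score is lower than -3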
- Meaning of the calls: active = essential (knock-down alone lowers viability); inactive = no essential effect
The deposit covers 794 reagents; below is a random part of them. 13 of all reagents (1.6%) count as active. 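Calls reflect only knock-down without drug; synergy above 0.15 was grouped apart and does not change the call.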 Unmarked entries are inactive. Viability is capped at 1. Reagent sequences are not shown. The record does not give: the amount of reagent, the time to read-out.

target	viability robust z-score, siRNA alone	viability vs control, no drug (fraction of control)	synergy score with BYL719	synergy score with cetuximab	synergy score with trametinib
MOS (GeneID 4342)	-1.39	0.793	-0.173	0.0247	0.00404
DYRK1B (GeneID 9149)	-1.08	0.826	-0.133	-0.024	-0.0253
MAP4K5 (GeneID 11183)	0.602	1	-0.283	0.000113	0.0168
PNCK (GeneID 139728)	0.00868	0.938	-0.0177	0.0657	0.191
STK32A (GeneID 202374)	0.055	0.943	-0.119	0.107	0.0821
ARID1A (GeneID 8289)	0.602	1	-0.247	-0.1	0.0382
ETNK1 (GeneID 55500)	-0.438	0.892	-0.192	-0.0437	0.0563
CREBBP (GeneID 1387)	-0.0974	0.927	-0.121	0.0967	0.105
PDPK1 (GeneID 5170)	0.602	1	-0.207	-0.1	0.182
PBK (GeneID 55872)	-0.376	0.898	-0.127	-0.0612	-0.179
CERK (GeneID 64781)	0.602	1	-0.0396	0.0588	0.0576
RPS6KA3 (GeneID 6197)	-1.3	0.803	-0.163	-0.259	-0.0365
PRKCB (GeneID 5579)	-0.012	0.936	-0.138	-0.158	0.129
TRIM27 (GeneID 5987)	-0.119	0.925	-0.137	0.0268	0.0227
CSF1R (GeneID 1436)	-0.489	0.887	-0.161	-0.202	0.0631
ALK (GeneID 238)	0.602	1	-0.0945	-0.1	-0.114
GSK3A (GeneID 2931)	-0.905	0.843	-0.197	-0.0517	0.0511
INSRR (GeneID 3645)	0.602	1	-0.207	-0.1	-0.0841
CSNK1A1 (GeneID 1452)	-0.143	0.923	-0.261	-0.17	0.0626
PINK1 (GeneID 65018)	0.602	1	-0.0868	0.0619	0.24
AMER1 (GeneID 139285)	-2.96	0.629	-0.162	-0.00519	0.125
STK3 (GeneID 6788)	0.602	1	-0.283	-0.1	-0.201
WNK1 (GeneID 65125)	0.602	1	-0.0576	-0.1	0.024
RIOK1 (GeneID 83732)	-1.6	0.771	-0.216	0.0316	0.0724
DSTYK (GeneID 25778)	0.602	1	-0.11	-0.1	-0.0544
CHEK1 (GeneID 1111)	-0.656	0.869	-0.0821	-0.218	-0.0734
NRK (GeneID 203447)	0.602	1	-0.219	-0.1	-0.0131
CHKA (GeneID 1119)	0.602	1	0.16	0.165	0.137
CTNNB1 (GeneID 1499)	0.602	1	-0.256	-0.1	-0.344
PKN1 (GeneID 5585)	0.602	1	-0.0757	-0.1	-0.0818
RBKS (GeneID 64080)	0.602	1	-0.281	-0.1	-0.303
HIPK1 (GeneID 204851)	0.602	1	-0.0938	-0.0938	0.0937
PHKG2 (GeneID 5261)	0.602	1	-0.148	-0.1	-0.00969
MSR1 (GeneID 4481)	0.56	0.996	-0.0283	-0.00146	0.0768
CDKL1 (GeneID 8814)	0.602	1	-0.213	-0.1	0.0526
RIOK2 (GeneID 55781)	0.602	1	-0.118	-0.1	0.00812
TLK1 (GeneID 9874)	0.602	1	-0.102	-0.1	-0.0428
CDK4 (GeneID 1019)	-1.2	0.812	0.0173	0.157	-0.00466
NUCKS1 (GeneID 64710)	0.602	1	0.0277	-0.0881	0.0691
NRBP2 (GeneID 340371)	0.602	1	-0.153	-0.0888	-0.0186
STK16 (GeneID 8576)	0.602	1	-0.261	-0.1	-0.165
STK25 (GeneID 10494)	-0.0837	0.929	-0.296	-0.164	-0.00512
NUP62 (GeneID 23636)	0.602	1	-0.283	-0.1	-0.149
EPHA6 (GeneID 285220)	0.232	0.961	0.0692	-0.0919	0.168
FGFR3 (GeneID 2261)	-0.665	0.868	-0.0903	-0.185	0.278
PAK1 (GeneID 5058)	0.602	1	-0.143	-0.1	0.054
PIK3R3 (GeneID 8503)	0.602	1	-0.122	-0.1	0.0454
PRKG1 (GeneID 5592)	0.602	1	-0.0433	-0.1	-0.0741
MAP2K1 (GeneID 5604)	0.566	0.996	-0.222	-0.00193	-0.102
NTRK2 (GeneID 4915)	0.602	1	-0.214	-0.1	-0.102
CDKL5 (GeneID 6792)	-1.17	0.816	-0.0547	-0.266	-0.0311
DCK (GeneID 1633)	0.602	1	-0.195	-0.1	-0.0628
MYLK2 (GeneID 85366)	0.412	0.98	-0.0834	0.112	0.369
MAGI2 (GeneID 9863)	0.602	1	-0.0177	-0.1	0.143
PHKA2 (GeneID 5256)	0.231	0.961	0.0416	-0.135	0.275
NME6 (GeneID 10201)	-0.467	0.889	-0.363	-0.2	-0.162
SRMS (GeneID 6725)	-0.48	0.888	-0.027	0.0532	0.216
MAP3K8 (GeneID 1326)	0.602	1	-0.0294	-0.1	-0.0319
TYK2 (GeneID 7297)	0.602	1	-0.206	-0.1	-0.0698
SCYL1 (GeneID 57410)	0.602	1	-0.283	-0.1	-0.135
TRIB3 (GeneID 57761)	0.602	1	0.00923	-0.1	0.0351
CDKN1C (GeneID 1028)	0.602	1	-0.104	-0.1	0.158
BMX (GeneID 660)	-0.322	0.904	-0.187	0.0227	0.207

Part of the list above, reformatted.
{"target": "RPS6KA3 (GeneID 6197)", "viability robust z-score, siRNA alone": -1.3, "viability vs control, no drug (fraction of control)": 0.803, "synergy score with BYL719": -0.163, "synergy score with cetuximab": -0.259, "synergy score with trametinib": -0.0365}
{"target": "PRKCB (GeneID 5579)", "viability robust z-score, siRNA alone": -0.012, "viability vs control, no drug (fraction of control)": 0.936, "synergy score with BYL719": -0.138, "synergy score with cetuximab": -0.158, "synergy score with trametinib": 0.129}
{"target": "TRIM27 (GeneID 5987)", "viability robust z-score, siRNA alone": -0.119, "viability vs control, no drug (fraction of control)": 0.925, "synergy score with BYL719": -0.137, "synergy score with cetuximab": 0.0268, "synergy score with trametinib": 0.0227}
{"target": "CSF1R (GeneID 1436)", "viability robust z-score, siRNA alone": -0.489, "viability vs control, no drug (fraction of control)": 0.887, "synergy score with BYL719": -0.161, "synergy score with cetuximab": -0.202, "synergy score with trametinib": 0.0631}
{"target": "ALK (GeneID 238)", "viability robust z-score, siRNA alone": 0.602, "viability vs control, no drug (fraction of control)": 1, "synergy score with BYL719": -0.0945, "synergy score with cetuximab": -0.1, "synergy score with trametinib": -0.114}
{"target": "GSK3A (GeneID 2931)", "viability robust z-score, siRNA alone": -0.905, "viability vs control, no drug (fraction of control)": 0.843, "synergy score with BYL719": -0.197, "synergy score with cetuximab": -0.0517, "synergy score with trametinib": 0.0511}
{"target": "INSRR (GeneID 3645)", "viability robust z-score, siRNA alone": 0.602, "viability vs control, no drug (fraction of control)": 1, "synergy score with BYL719": -0.207, "synergy score with cetuximab": -0.1, "synergy score with trametinib": -0.0841}
